Consider ten compounds from PubChem BioAssay (NCATS).

Values joined by “and” are separate entries in the source; they are usually repeats but may differ in a detail not shown here. Identical values can stand only once. The list shows a part of the results. The main result of the screen is listed elsewhere. These columns were measured beside it and carry no call. For some of these results: The list favours compounds with an active or inconclusive main result. Potencies come from curve fits of mixed quality, noted in brackets.

Assay [1] is described as follows: Validation of Assay for Modulators of Lamin A Splicing (AID 1459). Conditions: Lamin A splicing dual RFP/GFP fluorescence reporter, ratio. The essentials:
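Splicing correction read as GFP (500-530 nm) over DsRed2 (575-640 nm) object intensity after 48 h compound exposure of reporter HeLa S3 clones (600 cells/well, 2% FBS medium); ancitabine and cycloheximide titrations, 0.5% DMSO as vehicle.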

A short description of assay [2]: qHTS Assay for Lipid Storage Modulators (AID 1519). Conditions: Drosophila S3 cells, BODIPY lipid droplet/cell ratio, laser cytometry, cells loaded with oleic acid. The essentials: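 Cells seeded at 5,000 per well were treated with compounds over a concentration series and loaded with oleic acid (400 uM, as added). Lipid droplet fluorescence (488 nm excitation, 500-530 nm channel) was read by laser-scanning cytometry and normalized to 20 uM Triacsin C.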
In general terms: Quantitative high-throughput screening tests each substance at several concentrations.

The nature of assay [3]: qHTS Assay for Modulators of Human Peripheral Myelin Protein 22 (PMP22) Expression/Activity (AID 1967). Conditions: Cell-based PMP22 reporter, dual-color luciferase ratio. The essentials: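 Readout is the corrected green/red luminescence ratio after 24 h compound exposure, normalised to untreated cells (0%). Engineered MSC80 mouse Schwann cells express green luciferase from the mouse Pmp22 promoter and red luciferase from EF-alpha as internal control.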

A short description of assay [4]: qHTS Validation Assay to Find Inhibitors of Chronic Active B-Cell Receptor Signaling (AID 485345). Conditions: ABC-DLBCL cells, chronic BCR signaling reporter; measured here: CBR control luciferase (viability counter). The essentials:
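TMD8 ABC-DLBCL cells stably carrying doxycycline-inducible IkappaBalpha–green luciferase fusion plus unfused red luciferase; compounds 46 uM to 3 nM, 4 h at 37C with doxycycline. Corrected green/red luminescence ratio normalized to 10 uM MG-132 and basal cell wells; curves fitted.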

Assay [5] in a line: Nrf2 qHTS screen for inhibitors: Validation (AID 493153). Conditions: A549 ARE-Fluc reporter, 18-24 h; AC50: CellTiter-Fluor fluorescence read, measured here: cytotoxicity CellTiter-Fluor AC50; viability change: measured here: cytotoxicity max response. The essentials: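 A549 ARE_Fluc, 5% FBS OPTI-MEM; cpd titration, 18-24 h, 37°C/5% CO2. Read 1: CellTiter-Fluor (Ex 405/Em 525), cytotox. Read 2: luciferase lum, Nrf2 activity.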

Assay [6] is described as follows: qHTS drug screen for cell cycle checkpoint inhibitors in PARPi-resistant BRCA-mutant ovarian cancer cell lines. (AID 1963452). To be noted: PEO1/OlaR viability, CellTiter-Glo luminescence, 96 h. The essentials:
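PEO1, PEO4 and PEO1/OlaR ovarian cancer cells, 600 per well, exposed 96 h at 37C to a dilution series. Viability read by CellTiter-Glo luminescence, normalized to DMSO and empty wells; activity summarized as Z-AUC.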

Assay [7] is described as follows: qHTS for identification of novel therapeutic agents for treatment of microphthalmiaassociated transcription factor (MiT) renal cell carcinoma (RCC) (AID 1963991). To be noted: CellTiter-Glo, 48 h; for z-score: stronger effect = lower value. The essentials: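 Three TFE3-fusion RCC lines (UOK109, UOK124, UOK145), 500 cells/well in complete medium, were treated with MIPE 4.0 compounds for 48 hours at 37 C. Viability was by CellTiter-Glo luminescence, normalized to DMSO (100%) and empty wells (0%); curves fitted over 11 concentrations.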

The mark [8] stands for this setting: measured here: cell count channel max response.
The mark [9] stands for this setting: measured here: lipid channel max response.
Setting [10] is: measured here: green reporter channel AC50, mouse Pmp22 promoter in mouse Schwann cells.
Where [11] appears, read: measured here: red reporter channel AC50, EF-alpha promoter control reporter in MSC80 mouse Schwann cells.
The mark [12] stands for this setting: measured here: cell number channel AC50.
[13] abbreviates: measured here: lipid (BODIPY) channel AC50.

What is called AC50 is the concentration at which the activity in the assay is half-maximal. On to `CCn1cnc2c(Nc3cccc(Cl)c3)nc(N[C@@H]3CCCC[C@@H]3N)nc21`, for which the AC50 in assay [1] (measured here: GFP channel) was 6.31 µM [falling, full curve]; in assay [1] (measured here: RFP channel), 5.62 µM [falling, full curve]; in assay [3] (setting [10]), 37.9 µM [falling, full curve]; in assay [3] (setting [11]), 19 µM [falling, full curve]; in assay [4] it was 5.17 µM [falling, full curve]. For the same compound, the max response turned out to be 50.6% in assay [2] (setting [8]) and 49% in assay [2] (setting [9]).
On to `CC[C@@]1(O)C(=O)OCc2c1cc1n(c2=O)Cc2cc3ccccc3nc2-1`, for which the AC50 was 0.0158 µM [falling, full curve, poor fit] in assay [1] (measured here: GFP channel); 0.0158 µM [falling, full curve, poor fit] in assay [1] (measured here: RFP channel); 22.4 µM [falling, partial curve, poor fit] in assay [2] (setting [12]); 200 nM [falling, full curve, poor fit] and 20 µM [falling, partial curve, poor fit] in assay [2] (setting [13]); 2.13 µM [falling, full curve] in assay [3] (setting [10]); 0.239 µM [falling, full curve] in assay [3] (setting [11]). In addition, the AC50 in assay [4] is 1.46 µM [falling, full curve]; in assay [5] it was 0.366 µM [falling, partial curve, poor fit]; in assay [6] (measured here: PEO1 parental viability), 0.0174 µM [falling, full curve]; in assay [6] (measured here: PEO4 viability), 0.0549 µM [falling, full curve]; in assay [7] (TFE3-RCC viability, measured here: UOK124 cell viability), 0.118 µM [falling, full curve]; in assay [7] (TFE3-RCC viability, measured here: UOK145 cell viability) it was 0.0662 µM [falling, full curve]. Also, the max response in assay [2] (setting [8]) is -20.8% and 25.8% and -65.9%; in assay [2] (setting [9]) it was -32.9% and 25.2% and -67.6%. For the same compound, the viability change in assay [5] is -22.3%.
As to `COc1cc(-c2ccc(=O)[nH]n2)ccc1OC(F)F`, the AC50 was 7.08 µM [falling, partial curve] in assay [1] (measured here: GFP channel); 2 µM [falling, full curve] in assay [1] (measured here: RFP channel); 15.8 µM [rising, partial curve, poor fit] in assay [2] (setting [12]); 15.8 µM [rising, partial curve, poor fit] and 2.51 nM [falling, full curve, poor fit] in assay [2] (setting [13]); 75.7 µM [falling, partial curve] in assay [3] (setting [11]). In addition, the max response in assay [2] (setting [8]) is 91.8% and 16.6%; in assay [2] (setting [9]), 119% and 13.9%.
For `CC[C@H](CO)Nc1nc(NCc2ccccc2)c2ncn(C(C)C)c2n1`, the AC50 in assay [1] (measured here: GFP channel) was 15.8 µM [falling, partial curve]; in assay [1] (measured here: RFP channel) it was 17.8 µM [falling, partial curve]; in assay [3] (setting [10]), 84.9 µM [falling, single point]; in assay [3] (setting [11]) it was 37.9 µM [falling, full curve].
`CCCN1CCc2cc(O)cc3c2C1Cc1ccc(O)c(O)c1-3` (stereo unspecified): the AC50 in assay [1] (measured here: GFP channel) was 15.8 µM [falling, single point]; in assay [1] (measured here: RFP channel) it was 11.2 µM [falling, partial curve, poor fit]; in assay [2] (setting [13]), 22.4 µM [falling, partial curve, poor fit]; in assay [3] (setting [10]), 60.1 µM [falling, partial curve]; in assay [3] (setting [11]), 75.7 µM [falling, partial curve]. Besides, the max response in assay [2] (setting [8]) was found to be 78.3%; in assay [2] (setting [9]), 81.2%.
For the compound `C=CCN1CCc2cccc3c2C1Cc1ccc(O)c(O)c1-3` (stereo unspecified), the AC50 in assay [1] (measured here: GFP channel) was 35.5 µM [falling, single point]; in assay [1] (measured here: RFP channel), 20 µM [falling, partial curve]; in assay [2] (setting [12]), 0.2 µM [falling, full curve, poor fit]; in assay [2] (setting [13]), 0.141 µM [falling, full curve, poor fit]; in assay [3] (setting [10]) it was 67.5 µM [falling, partial curve]; in assay [3] (setting [11]), 47.8 µM [falling, partial curve, poor fit]. Besides, the results for the max response in assay [2] (setting [8]) and in assay [2] (setting [9]) were -57.1% and -57.9%, respectively.
Turning to `NC1CC1c1ccccc1` (stereo unspecified), the concentration at half-maximal activity (AC50) was 35.5 µM [falling, single point] in assay [1] (measured here: GFP channel); 35.5 µM [falling, single point] in assay [1] (measured here: RFP channel); 21.3 µM [rising, partial curve] in assay [3] (setting [11]). The results for the max response in assay [2] (setting [8]) and in assay [2] (setting [9]) were 60.2% and 57.9%, respectively.
For the compound `CC[C@H]1CN2CCc3cc(OC)c(OC)cc3[C@@H]2C[C@@H]1C[C@H]1NCCc2cc(OC)c(OC)cc21`, the AC50 was 0.562 µM [falling, full curve] in assay [1] (measured here: GFP channel); 0.794 µM [falling, full curve] in assay [1] (measured here: RFP channel); 44.7 µM [rising, single point] in assay [2] (setting [12]); 44.7 µM [rising, single point] in assay [2] (setting [13]); 0.0675 µM [falling, full curve] in assay [3] (setting [10]); 0.0757 µM [falling, full curve] in assay [3] (setting [11]). Further, the AC50 in assay [5] was 1.3 µM [falling, full curve]. The max response in assay [2] (setting [8]) is 39.8%; in assay [2] (setting [9]) it was 34.5%. For the same compound, the viability change in assay [5] is -42.4%.
As for `Brc1c(Br)c(Br)c2n[nH]nc2c1Br`, the AC50 in assay [1] (measured here: GFP channel) was 22.4 µM [rising, single point]; in assay [1] (measured here: RFP channel) it was 12.6 µM [falling, partial curve].
For the compound `Cc1nc(-c2ccc(-c3ccc(C(=O)N4CCc5cc6c(cc54)C4(CCN(C)CC4)CO6)cc3)c(C)c2)no1`, the AC50 is 11.2 µM [falling, partial curve] in assay [1] (measured here: GFP channel); 12.6 µM [falling, partial curve] in assay [1] (measured here: RFP channel); 15.8 µM [rising, partial curve, poor fit] in assay [2] (setting [12]); 17.8 µM [rising, partial curve, poor fit] in assay [2] (setting [13]); 16.9 µM [falling, full curve] in assay [3] (setting [10]); 16.9 µM [falling, full curve] in assay [3] (setting [11]). For the same compound, the max response was 63.6% and 44.2% in assay [2] (setting [8]); 75.9% and 45.4% in assay [2] (setting [9]). In addition, the z-score is 0.6 in assay [7] (TFE3-RCC UOK109 viability, measured here: UOK109 Z-AUC); 0.627 in assay [7] (TFE3-RCC viability, measured here: UOK124 Z-AUC); 0.641 in assay [7] (TFE3-RCC viability, measured here: UOK145 Z-AUC).
